Laboratory results from patent US20240174758A1 (AstraZeneca / MedImmune, published 2024).
Substitutions are numbered along the chain they refer to. These are yes or no findings as the source states them, for the method shown. Blank lines part the entries; values can stand above or below the binder they belong to.

How the values were obtained:
CCR5 [1] = experiment: cell binding by the methods of Example 4
CCR8 [2] = experiment: cell binding by the methods of Example 4
CXCR1 [3] = experiment: cell binding by the methods of Example 4
CXCR2 [4] = experiment: cell binding by the methods of Example 4
CCR5 [5] = experiment: binding to cells expressing CCR5, FL1 counts against Log M
CCR8 [6] = experiment: binding to cells expressing CCR8, FL1 counts against Log M
CXCR2 [7] = experiment: binding to cells expressing CXCR2, FL1 counts against Log M
CXCR1 [8] = experiment: binding to cells expressing CXCR1, FL1 counts against Log M

- binding (CCR5 [1]): no binding
- binding (CCR8 [2]): no binding
- binding (CXCR1 [3]): no binding
- binding (CXCR2 [4]): no binding
B1: Humanised AB1020243 (AB1020243-fgl) (antibody, V domains shown)
VH: QVQLVQSGAEVKKPGASVKVSCKASGYTFTSYWMHWVRQAPGQGLEWIGVIYPGNSDTRYNQKFKGRVTITRDTSASTAYMELSSLRSEDTAVYYCTRDYYSNYVYYYAMDYWGQGTTVTVSS
VL: DIVMTQTPLSLPVTPGEPASISCRSSQSLVHSNGNTYLHWYLQKPGQSPQLLIYKVSNRFSGVPDRFSGSGSGTDFTLKISRVEAEDVGVYYCSQSTHVPWTFGQGTKLEIK
notes: For LigandTracer it was labelled with DyLight 650 on an engineered cysteine in CH2; also called humanised AB1020243 afuc
- binding (CCR5 [5]): no binding (tested: Log M about -6.5 (about 3e-7 M))
- binding (CCR8 [6]): no binding (tested: Log M about -6.5 (about 3e-7 M))
- binding (CXCR2 [7]): no binding (tested: Log M about -6.5 (about 3e-7 M))
- binding (CXCR1 [8]): no binding (tested: Log M about -6.5 (about 3e-7 M))

- binding (CCR5 [1]): no binding
- binding (CCR8 [2]): no binding
- binding (CXCR1 [3]): no binding
- binding (CXCR2 [4]): no binding
B2: AB243LO0326 (antibody, V domains shown)
VH: B1 VH
VL: B1 VL with S32P, G34R
notes: CDR-optimised humanised antibody, a-fuc huIgG1 (afucosylated in all experiments); For LigandTracer it was labelled with DyLight 650 on an engineered cysteine in CH2; also called CDR-optimised AB1020243
- binding (CCR5 [5]): no binding (tested: Log M about -6.8 (about 2e-7 M))
- binding (CCR8 [6]): no binding (tested: Log M about -6.8 (about 2e-7 M))
- binding (CXCR2 [7]): no binding (tested: Log M about -6.8 (about 2e-7 M))
- binding (CXCR1 [8]): no binding (tested: Log M about -6.8 (about 2e-7 M))
